Measured values: US20230129595A1, “PARENTERAL NUTRITION SOLUTION COMPRISING A SELENIUM SOURCE” (BAXTER INTERNATIONAL INC., priority 2019, published 2023)
At least one structure is not confirmed: it was looked up by name or label, or the drawing left a doubt. Some results were stated once for a whole list of compounds, not compound by compound.

Assay: Selenium stability in sterilized multi trace element solutions, recovery of initial concentration (Example 4, FIGS. 1-3)
Settings: mixed with other TE, pH 2.2 with malic acid, terminal heat sterilization
Description: FIGS. 1-3: The recovery of the initial concentration of the different trace elements in percent (%) is indicated on the Y-axis of the Figures. The analyzed timepoints are is indicated on the X-axis. The timepoint −0.5 corresponds to the results of TE dosage on unsterilized sample at T0. Timepoint 0 corresponds to the results of TE dosage right after sterilization. Timepoint 0.5 correspond to the results of TE dosage after an accelerated stability stress cycle (i.e. three repetition of alternatively 5° C./50° C., 48 h/48 h). Timepoints 1, 3 and 6 correspond to the results of TE dosage after 1 month, 3 months and 6 months storage at 40° C./25% RH.
For the three tested solutions containing different forms of selenium, the selenium is mixed with other TE (Zn, Cu, Mn, F, I, Mo, Cr, Fe), which were introduced as chloride salts. The solutions were acidified to pH 2.2 using malic acid and underwent terminal heat sterilization prior to storage.

| Structure (SMILES) | Selenium concentration during storage (FIGS. 1-3) | Time for which selenium remained stable (storage at 40° C./25% RH) |
| --- | --- | --- |
| O=[Se](O)O [selenite, reference compound] | decreased significantly |  |
| C[Se]CC[C@H](N)C(=O)O [selenomethionine] |  | up to 6 months |
